Results taken from ChEMBL document CHEMBL2417536, “New pyridazine-fluorine derivatives: synthesis, chemistry and biological activity. Part II” (2013).

System: Candida albicans
Test: Antifungal activity against Candida albicans ATCC 10231 assessed as growth inhibition at 100 ug/disc after 48 hrs by disc diffusion assay
Format: functional, organism-based

NYSTATIN showed an inhibition zone (IZ) of 29 mm.
